Some results were stated once for a whole list of compounds, not compound by compound. For at least one compound, name, drawing or mass did not settle the structure.
What was measured:
Human thrombin = target: T1, Human thrombin (Homo sapiens, UniProt P00734); assay: Test A: Determination of Thrombin Clotting Time (TT); assay type: biochemical; details: concentration of inhibitor that doubles the thrombin clotting time in plasma
T1 construct: the conversion of the proenzyme prothrombin to the active enzyme thrombin; purchased Sigma Chem. Co or Hematologic Technologies T 6769

[1] = system: pooled normal human citrated plasma; assay: Test D: Determination of Activated Partial Thromboplastin Time (APTT); assay type: biochemical; details: concentration of inhibitor in human plasma that doubled the Activated Partial Thromboplastin Time

Compound	IC50 (Human thrombin)	IC50 [1]
CCNc1cc(Cl)cc([C@@H](O)C(=O)N2CC[C@H]2C(=O)NCc2ccc(C(=N)N)cc2)c1 [Example 4, Ph(3-Cl)(5-NHEt)-(R)CH(OH)C(O)-(S)Aze-Pab]	< 20 nM	< 1000 nM
CC(=O)Nc1cc(Cl)cc(C(O)C(=O)N2CCC2C(=O)NCc2ccc(C(=N)N)cc2)c1 [Example 5, Ph(3-Cl)(5-NHAc)-(R)CH(OH)C(O)-(S)Aze-Pab]	< 20 nM	< 1000 nM

— US6433186B1, “Amidino derivatives and their use as thormbin inhibitors” (AstraZeneca AB, priority 2000, dated 2002)
